This passage reports binding results from paper PMC6065199.

The chains behind the UniProt entries cited, without tags or fusion partners. Where a name states a change or a piece, a line headed by the entry shows the natural chain unless it says otherwise. A line that says so, or that is headed by a name, gives the form on record, which may keep a tag or linker.
RNA-binding protein Raly isoform 2 (Q9UKM9-2, form named): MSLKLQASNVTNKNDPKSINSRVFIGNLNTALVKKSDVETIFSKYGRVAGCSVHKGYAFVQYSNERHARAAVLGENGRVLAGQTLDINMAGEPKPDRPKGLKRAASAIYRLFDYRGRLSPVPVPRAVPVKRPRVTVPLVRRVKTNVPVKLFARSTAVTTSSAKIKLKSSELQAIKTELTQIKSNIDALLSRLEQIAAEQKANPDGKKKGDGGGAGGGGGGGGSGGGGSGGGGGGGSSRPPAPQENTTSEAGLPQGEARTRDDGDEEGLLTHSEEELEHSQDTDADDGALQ
UniProt P31943: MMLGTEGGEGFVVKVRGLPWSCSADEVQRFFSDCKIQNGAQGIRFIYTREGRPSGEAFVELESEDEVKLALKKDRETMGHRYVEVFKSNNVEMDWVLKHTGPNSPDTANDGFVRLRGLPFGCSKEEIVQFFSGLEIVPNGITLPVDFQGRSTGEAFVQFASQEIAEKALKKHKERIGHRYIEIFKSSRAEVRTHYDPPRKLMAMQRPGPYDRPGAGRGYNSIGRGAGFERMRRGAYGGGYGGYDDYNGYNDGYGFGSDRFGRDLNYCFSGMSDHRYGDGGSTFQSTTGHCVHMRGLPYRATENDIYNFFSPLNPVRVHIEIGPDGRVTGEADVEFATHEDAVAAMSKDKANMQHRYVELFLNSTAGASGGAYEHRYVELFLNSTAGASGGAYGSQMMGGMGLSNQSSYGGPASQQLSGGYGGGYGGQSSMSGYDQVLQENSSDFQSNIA
UniProt P68371: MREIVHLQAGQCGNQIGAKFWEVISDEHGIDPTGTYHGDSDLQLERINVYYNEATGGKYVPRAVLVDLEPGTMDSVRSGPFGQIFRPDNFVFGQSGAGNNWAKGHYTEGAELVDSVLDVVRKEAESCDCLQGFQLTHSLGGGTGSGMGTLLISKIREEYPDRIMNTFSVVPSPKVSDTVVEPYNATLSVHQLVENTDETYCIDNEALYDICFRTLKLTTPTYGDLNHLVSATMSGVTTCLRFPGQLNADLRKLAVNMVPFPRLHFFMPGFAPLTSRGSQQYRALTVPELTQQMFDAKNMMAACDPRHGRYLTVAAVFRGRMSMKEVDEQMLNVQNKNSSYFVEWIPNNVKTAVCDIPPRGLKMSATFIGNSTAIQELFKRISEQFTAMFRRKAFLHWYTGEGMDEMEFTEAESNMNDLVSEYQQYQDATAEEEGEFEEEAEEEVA

Assay [1] addresses Hu protein R (HuR RNA binding protein) (human (endogenous in Jurkat and primary human T cells)) (UniProt Q15717). Description: affinity purification with mass spectrometry; HuR immunoprecipitate from Jurkat T cell lysates (anti-HuR antibody; isotype control MOPC-21), SDS-PAGE, gel slices by molecular weight range, trypsin digest, LC-MS/MS, Mascot search.
A further assay concerns the target HuR-GST (UniProt Q15717). Description: affinity purification with mass spectrometry; HuR-GST pulldown and iTRAQ of phosphopeptides, resting and ICAM-1-stimulated cells; no methods given.

Results are given in words; binding and its absence hold for the method and conditions named. In cells and extracts the contact can be indirect. A yes stands for co-enrichment or nearness to the bait. Other partners may have been found.

Regarding “RNA-binding protein Raly isoform 2 (from UniProt Q9UKM9-2 1-290)”, the binding entry in assay [1] is listed as “binds”. As to “heterogeneous nuclear ribonucleoprotein H1 (from UniProt P31943 1-449)”, the binding result with HuR-GST is listed as “binds”. The same measure, in the same setting: the result for “heterogeneous nuclear ribonucleoprotein K (from UniProt P61978 1-463)” reads “binds”.

In the case of “tubulin, beta 2C (from UniProt P68371 1-445)”, in assay [1], the binding result is listed as “binds”.
